# Measurements: the supplement of paper PMC7666118
# The chains behind the UniProt entries cited, without tags or fusion partners. Where a name states a change or a piece, a line headed by the entry shows the natural chain unless it says otherwise.
# UniProt P17987, whole entry: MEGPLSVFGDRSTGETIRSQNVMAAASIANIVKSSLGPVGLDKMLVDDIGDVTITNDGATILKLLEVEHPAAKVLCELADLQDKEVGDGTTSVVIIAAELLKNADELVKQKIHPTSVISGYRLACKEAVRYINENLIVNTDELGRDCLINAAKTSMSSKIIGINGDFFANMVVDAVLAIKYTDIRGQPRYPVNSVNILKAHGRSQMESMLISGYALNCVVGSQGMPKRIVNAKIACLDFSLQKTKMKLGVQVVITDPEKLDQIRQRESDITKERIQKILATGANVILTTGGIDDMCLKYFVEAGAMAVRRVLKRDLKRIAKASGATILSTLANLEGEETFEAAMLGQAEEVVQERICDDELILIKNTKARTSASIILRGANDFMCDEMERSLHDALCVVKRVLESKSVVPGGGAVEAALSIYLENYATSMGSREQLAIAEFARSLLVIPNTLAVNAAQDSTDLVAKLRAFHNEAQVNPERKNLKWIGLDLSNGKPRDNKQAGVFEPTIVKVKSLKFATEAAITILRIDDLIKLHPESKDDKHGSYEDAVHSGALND
# UniProt Q9Y4K3: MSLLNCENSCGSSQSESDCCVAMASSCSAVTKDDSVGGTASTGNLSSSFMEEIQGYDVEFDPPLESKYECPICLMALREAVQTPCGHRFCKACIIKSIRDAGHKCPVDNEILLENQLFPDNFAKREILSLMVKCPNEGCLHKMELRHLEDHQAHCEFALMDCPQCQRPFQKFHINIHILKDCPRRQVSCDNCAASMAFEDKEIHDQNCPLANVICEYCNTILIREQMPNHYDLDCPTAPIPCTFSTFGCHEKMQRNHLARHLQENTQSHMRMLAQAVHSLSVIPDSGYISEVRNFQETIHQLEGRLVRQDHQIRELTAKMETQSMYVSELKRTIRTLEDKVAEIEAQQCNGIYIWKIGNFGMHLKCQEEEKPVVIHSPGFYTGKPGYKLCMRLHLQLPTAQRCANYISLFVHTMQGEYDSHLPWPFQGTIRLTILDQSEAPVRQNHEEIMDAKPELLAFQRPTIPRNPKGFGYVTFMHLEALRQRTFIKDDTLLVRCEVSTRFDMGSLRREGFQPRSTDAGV
# UniProt Q14166: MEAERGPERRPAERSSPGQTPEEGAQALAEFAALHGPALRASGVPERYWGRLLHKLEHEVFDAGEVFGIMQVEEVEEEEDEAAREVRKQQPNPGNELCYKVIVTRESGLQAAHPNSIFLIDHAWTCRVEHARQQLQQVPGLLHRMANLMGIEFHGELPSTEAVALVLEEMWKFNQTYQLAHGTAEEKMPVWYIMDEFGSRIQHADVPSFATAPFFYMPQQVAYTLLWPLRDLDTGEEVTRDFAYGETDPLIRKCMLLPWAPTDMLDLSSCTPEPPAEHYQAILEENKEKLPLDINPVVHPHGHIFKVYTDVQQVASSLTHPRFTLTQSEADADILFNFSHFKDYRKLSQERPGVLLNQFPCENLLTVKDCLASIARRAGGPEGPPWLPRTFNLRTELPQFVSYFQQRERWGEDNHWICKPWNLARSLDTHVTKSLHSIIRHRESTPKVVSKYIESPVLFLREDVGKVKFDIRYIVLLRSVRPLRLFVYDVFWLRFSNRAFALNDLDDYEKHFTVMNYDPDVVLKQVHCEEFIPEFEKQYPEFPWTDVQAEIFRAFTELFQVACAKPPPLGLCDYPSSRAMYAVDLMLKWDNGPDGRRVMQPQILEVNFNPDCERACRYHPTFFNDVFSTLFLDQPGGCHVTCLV
# UniProt Q92609: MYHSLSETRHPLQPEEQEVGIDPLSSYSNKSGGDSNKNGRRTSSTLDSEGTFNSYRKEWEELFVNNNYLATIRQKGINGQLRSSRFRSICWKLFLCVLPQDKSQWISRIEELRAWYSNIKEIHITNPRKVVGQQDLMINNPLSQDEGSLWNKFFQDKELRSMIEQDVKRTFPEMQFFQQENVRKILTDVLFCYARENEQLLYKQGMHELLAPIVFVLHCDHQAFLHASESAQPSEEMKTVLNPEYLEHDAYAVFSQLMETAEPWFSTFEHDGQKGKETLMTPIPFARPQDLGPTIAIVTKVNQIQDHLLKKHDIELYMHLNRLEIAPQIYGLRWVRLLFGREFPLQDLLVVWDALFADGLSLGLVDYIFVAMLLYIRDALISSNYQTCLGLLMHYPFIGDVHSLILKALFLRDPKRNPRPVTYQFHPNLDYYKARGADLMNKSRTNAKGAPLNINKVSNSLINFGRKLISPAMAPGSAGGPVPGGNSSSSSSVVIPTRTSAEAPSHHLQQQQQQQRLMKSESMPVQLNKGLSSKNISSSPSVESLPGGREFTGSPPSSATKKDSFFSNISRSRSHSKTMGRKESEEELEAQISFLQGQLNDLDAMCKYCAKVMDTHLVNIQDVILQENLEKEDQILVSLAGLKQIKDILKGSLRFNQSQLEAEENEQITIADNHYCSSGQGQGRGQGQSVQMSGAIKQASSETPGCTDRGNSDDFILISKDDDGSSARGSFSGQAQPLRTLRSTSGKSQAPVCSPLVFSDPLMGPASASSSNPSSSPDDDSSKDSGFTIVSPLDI
# UniProt Q9Y296, whole entry: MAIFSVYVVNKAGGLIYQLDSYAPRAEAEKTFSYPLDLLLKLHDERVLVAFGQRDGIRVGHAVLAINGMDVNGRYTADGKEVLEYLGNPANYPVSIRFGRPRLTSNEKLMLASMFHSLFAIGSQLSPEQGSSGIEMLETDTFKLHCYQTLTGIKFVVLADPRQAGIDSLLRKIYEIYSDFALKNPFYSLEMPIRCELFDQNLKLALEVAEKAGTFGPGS
# UniProt O95881: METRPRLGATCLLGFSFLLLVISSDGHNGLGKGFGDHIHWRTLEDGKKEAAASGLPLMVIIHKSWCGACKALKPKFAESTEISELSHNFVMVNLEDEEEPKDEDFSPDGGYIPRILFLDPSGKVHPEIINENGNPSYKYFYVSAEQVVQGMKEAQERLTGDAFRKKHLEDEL
# UniProt O75865, whole entry: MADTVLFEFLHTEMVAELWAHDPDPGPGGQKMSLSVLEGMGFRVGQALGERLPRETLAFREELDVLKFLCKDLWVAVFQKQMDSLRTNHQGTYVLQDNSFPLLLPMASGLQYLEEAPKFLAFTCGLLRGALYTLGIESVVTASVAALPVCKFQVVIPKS
# UniProt Q9P016: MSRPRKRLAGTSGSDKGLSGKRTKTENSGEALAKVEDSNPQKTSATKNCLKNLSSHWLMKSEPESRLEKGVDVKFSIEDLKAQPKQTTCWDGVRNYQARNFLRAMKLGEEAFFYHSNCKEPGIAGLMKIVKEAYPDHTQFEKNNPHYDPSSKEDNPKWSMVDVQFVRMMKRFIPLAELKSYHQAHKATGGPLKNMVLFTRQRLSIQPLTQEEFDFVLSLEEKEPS
# UniProt Q14669: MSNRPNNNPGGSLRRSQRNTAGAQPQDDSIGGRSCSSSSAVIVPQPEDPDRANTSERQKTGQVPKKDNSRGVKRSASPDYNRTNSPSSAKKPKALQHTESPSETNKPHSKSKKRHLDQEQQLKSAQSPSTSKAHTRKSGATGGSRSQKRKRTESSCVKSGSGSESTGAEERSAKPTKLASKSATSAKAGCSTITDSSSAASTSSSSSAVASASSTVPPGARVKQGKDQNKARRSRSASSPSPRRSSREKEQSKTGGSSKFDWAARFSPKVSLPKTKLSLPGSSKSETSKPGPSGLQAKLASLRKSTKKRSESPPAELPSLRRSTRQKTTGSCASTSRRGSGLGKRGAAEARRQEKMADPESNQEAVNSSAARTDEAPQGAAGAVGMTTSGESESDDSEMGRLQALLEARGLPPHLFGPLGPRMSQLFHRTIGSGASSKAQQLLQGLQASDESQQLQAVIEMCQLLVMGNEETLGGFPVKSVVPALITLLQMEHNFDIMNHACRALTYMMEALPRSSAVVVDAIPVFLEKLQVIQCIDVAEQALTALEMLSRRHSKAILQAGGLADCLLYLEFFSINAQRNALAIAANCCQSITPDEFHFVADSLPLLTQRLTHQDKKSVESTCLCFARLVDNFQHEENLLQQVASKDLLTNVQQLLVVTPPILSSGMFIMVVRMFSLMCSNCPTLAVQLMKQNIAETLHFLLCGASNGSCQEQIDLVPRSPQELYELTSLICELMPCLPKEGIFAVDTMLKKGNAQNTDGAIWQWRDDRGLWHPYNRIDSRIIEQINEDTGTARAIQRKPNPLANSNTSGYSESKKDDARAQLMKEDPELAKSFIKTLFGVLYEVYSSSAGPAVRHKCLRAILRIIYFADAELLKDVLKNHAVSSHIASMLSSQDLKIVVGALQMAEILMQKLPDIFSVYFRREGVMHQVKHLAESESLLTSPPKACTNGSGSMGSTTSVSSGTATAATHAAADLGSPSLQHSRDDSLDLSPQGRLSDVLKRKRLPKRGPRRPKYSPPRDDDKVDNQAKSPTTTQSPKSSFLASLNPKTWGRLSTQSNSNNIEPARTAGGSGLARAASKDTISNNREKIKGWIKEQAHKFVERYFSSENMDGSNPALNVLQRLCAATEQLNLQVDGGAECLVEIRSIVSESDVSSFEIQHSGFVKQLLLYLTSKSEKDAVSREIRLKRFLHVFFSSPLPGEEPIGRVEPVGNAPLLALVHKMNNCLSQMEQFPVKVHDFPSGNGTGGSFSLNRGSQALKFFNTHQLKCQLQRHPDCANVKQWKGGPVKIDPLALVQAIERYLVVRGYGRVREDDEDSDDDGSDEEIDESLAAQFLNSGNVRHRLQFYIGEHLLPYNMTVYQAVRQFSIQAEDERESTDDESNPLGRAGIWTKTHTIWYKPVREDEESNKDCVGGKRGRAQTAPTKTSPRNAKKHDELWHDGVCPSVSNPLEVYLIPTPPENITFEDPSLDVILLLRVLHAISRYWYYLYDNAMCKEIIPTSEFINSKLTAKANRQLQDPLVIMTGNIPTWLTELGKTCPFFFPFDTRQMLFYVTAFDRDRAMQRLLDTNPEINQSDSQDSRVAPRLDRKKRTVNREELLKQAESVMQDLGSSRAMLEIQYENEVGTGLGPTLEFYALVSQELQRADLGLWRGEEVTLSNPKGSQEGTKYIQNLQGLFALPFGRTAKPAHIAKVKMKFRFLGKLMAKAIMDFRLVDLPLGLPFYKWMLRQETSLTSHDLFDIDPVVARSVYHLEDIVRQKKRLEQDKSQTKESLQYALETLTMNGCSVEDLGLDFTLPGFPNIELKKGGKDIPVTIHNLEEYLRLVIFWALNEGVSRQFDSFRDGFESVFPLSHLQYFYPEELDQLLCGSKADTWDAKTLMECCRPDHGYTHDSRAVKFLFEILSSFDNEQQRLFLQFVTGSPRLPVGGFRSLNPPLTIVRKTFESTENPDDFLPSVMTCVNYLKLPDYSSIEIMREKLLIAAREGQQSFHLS
# UniProt Q8N9M5: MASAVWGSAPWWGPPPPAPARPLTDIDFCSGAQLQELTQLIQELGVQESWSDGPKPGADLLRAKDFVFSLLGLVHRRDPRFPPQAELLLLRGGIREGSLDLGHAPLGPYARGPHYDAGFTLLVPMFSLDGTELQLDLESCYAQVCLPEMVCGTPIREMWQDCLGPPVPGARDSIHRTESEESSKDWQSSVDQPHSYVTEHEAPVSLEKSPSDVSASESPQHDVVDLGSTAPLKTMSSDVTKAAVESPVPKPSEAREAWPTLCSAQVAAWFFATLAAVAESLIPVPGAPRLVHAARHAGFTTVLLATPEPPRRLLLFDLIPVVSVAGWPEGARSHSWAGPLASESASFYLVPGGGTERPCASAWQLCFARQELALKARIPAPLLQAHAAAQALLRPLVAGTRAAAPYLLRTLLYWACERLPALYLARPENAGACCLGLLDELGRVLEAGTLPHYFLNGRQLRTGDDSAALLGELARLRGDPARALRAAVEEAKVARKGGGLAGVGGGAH
# UniProt P21580: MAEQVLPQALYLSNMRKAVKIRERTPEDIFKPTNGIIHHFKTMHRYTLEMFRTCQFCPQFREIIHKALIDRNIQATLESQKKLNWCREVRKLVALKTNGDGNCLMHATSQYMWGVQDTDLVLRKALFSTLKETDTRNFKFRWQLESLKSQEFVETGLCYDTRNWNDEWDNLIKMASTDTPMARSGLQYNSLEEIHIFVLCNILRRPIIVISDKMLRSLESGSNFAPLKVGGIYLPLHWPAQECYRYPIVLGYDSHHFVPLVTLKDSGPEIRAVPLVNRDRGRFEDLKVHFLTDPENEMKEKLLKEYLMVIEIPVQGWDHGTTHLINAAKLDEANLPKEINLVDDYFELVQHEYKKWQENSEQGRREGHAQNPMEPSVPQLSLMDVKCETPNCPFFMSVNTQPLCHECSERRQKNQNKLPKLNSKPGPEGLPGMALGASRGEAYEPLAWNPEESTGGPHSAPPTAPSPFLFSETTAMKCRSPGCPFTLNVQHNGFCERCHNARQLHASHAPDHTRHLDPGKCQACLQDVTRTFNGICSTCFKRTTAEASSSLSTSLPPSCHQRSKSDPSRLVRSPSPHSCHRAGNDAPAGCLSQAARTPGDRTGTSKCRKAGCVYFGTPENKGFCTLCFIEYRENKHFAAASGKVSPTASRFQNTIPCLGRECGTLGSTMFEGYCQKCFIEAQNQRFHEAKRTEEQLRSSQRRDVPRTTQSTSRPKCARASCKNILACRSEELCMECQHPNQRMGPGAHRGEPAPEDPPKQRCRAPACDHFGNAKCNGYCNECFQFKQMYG
# Some of the results follow.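 Rule for the calls: active = dose-dependent thermal stabilisation significant by F-test of dose-response against flat model at 10% FDR; inactive = not significant.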
# Compound: Nc1nc2c(ncn2[C@@H]2O[C@H](COP(=O)(O)OP(=O)(O)OP(=O)(O)O)[C@@H](O)[C@H]2O)c(=O)[nH]1
# Assay: dose-dependent thermal stabilisation call (2D-TPP, DLPTP, 10% FDR) (binary (1 = stabilised)); higher = stabilised by the compound
# Details: system: Jurkat gel-filtered lysate; concentration range 1-500 µM
# Description: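 2D thermal proteome profiling in gel-filtered Jurkat E6.1 lysate (2 mg/ml) treated with NaGTP (0, 1, 10, 100, 500 uM) for 10 min at room temperature, then heated 3 min at one of 12 temperatures (42-63.9 C). Soluble protein was quantified by TMT10 MS. The value is the DLPTP call of the paper: dose-dependent thermal stabilisation over all temperatures at 10% FDR (F-test of a dose-response against a flat model); one experiment, one call per tested protein.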
row,Target,dose-dependent thermal stabilisation call
1,TBC1D22B (UniProt Q9NU19),inactive: 0
2,TCP1 (UniProt P17987),inactive: 0
3,TCF20 (UniProt Q9UGU0),inactive: 0
4,TRAF6 (UniProt Q9Y4K3),inactive: 0
5,TOP2A (UniProt P11388),inactive: 0
6,TRAFD1 (UniProt O14545),inactive: 0
7,TP53BP1 (UniProt Q12888),inactive: 0
8,TRIP13 (UniProt Q15645),active: 1
9,TGS1 (UniProt Q96RS0),active: 1
10,TEX30 (UniProt Q5JUR7),inactive: 0
11,TRAP1 (UniProt Q12931),inactive: 0
12,TTLL12 (UniProt Q14166),active: 1
13,TCF3 (UniProt P15923),inactive: 0
14,UAP1 (UniProt Q16222),inactive: 0
15,TBC1D5 (UniProt Q92609),inactive: 0
16,TTC9C (UniProt Q8N5M4),inactive: 0
17,TNPO2 (UniProt O14787),inactive: 0
18,TGFBRAP1 (UniProt Q8WUH2),inactive: 0
19,TIPRL (UniProt O75663),inactive: 0
20,TBC1D1 (UniProt Q86TI0),inactive: 0

# A second format for part of the listing above:
row | Target | dose-dependent thermal stabilisation call
11 | TRAP1 (UniProt Q12931) | inactive: 0
12 | TTLL12 (UniProt Q14166) | active: 1

# Following part

row,Target,dose-dependent thermal stabilisation call
1,TBCE (UniProt Q15813),active: 1
2,TAL1 (UniProt P17542),inactive: 0
3,TTC33 (UniProt Q6PID6),inactive: 0
4,TRAPPC4 (UniProt Q9Y296),inactive: 0
5,TXNDC12 (UniProt O95881),inactive: 0
6,TRIM28 (UniProt Q13263),inactive: 0
7,TIFA (UniProt Q96CG3),inactive: 0
8,TRAPPC6A (UniProt O75865),inactive: 0
9,TBC1D25 (UniProt Q3MII6),inactive: 0
10,THYN1 (UniProt Q9P016),inactive: 0
11,TRIP12 (UniProt Q14669),inactive: 0
12,TRMT13 (UniProt Q9NUP7),active: 1
13,TJAP1 (UniProt Q5JTD0),inactive: 0
14,TMPO (UniProt P42166),inactive: 0
15,TTC4 (UniProt O95801),active: 1
16,TMEM102 (UniProt Q8N9M5),active: 1
17,TUBE1 (UniProt Q9UJT0),active: 1
18,TJP2 (UniProt Q9UDY2),inactive: 0
19,TNFAIP3 (UniProt P21580),inactive: 0
20,TSN (UniProt Q15631),inactive: 0
